Consider 3 substances from publication PMC6013422.

By UniProt entry, the sequences of proteins in these tests, tags left out.
UniProt Q9Y466: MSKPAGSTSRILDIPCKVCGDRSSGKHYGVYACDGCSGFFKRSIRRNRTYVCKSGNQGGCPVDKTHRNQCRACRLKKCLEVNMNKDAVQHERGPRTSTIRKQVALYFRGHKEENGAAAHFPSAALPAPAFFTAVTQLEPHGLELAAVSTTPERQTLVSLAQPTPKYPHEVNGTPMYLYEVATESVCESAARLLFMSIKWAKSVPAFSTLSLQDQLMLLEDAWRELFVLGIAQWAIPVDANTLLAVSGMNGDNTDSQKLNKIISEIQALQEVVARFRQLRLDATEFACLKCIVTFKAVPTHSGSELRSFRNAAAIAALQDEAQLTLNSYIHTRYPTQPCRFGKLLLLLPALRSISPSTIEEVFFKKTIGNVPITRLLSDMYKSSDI
UniProt Q13547: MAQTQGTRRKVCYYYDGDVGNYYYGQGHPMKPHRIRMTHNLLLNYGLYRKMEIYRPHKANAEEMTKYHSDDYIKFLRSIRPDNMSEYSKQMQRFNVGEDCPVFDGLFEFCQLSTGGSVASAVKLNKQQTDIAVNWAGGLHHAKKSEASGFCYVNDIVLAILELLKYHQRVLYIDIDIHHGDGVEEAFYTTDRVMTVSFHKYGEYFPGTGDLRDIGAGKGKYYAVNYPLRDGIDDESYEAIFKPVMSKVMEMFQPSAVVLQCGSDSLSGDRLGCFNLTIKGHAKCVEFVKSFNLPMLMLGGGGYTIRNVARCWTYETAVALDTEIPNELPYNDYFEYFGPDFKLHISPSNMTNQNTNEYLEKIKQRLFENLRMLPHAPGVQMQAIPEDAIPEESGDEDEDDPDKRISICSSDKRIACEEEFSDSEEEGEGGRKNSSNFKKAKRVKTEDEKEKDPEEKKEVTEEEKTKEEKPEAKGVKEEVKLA
UniProt Q9UQL6: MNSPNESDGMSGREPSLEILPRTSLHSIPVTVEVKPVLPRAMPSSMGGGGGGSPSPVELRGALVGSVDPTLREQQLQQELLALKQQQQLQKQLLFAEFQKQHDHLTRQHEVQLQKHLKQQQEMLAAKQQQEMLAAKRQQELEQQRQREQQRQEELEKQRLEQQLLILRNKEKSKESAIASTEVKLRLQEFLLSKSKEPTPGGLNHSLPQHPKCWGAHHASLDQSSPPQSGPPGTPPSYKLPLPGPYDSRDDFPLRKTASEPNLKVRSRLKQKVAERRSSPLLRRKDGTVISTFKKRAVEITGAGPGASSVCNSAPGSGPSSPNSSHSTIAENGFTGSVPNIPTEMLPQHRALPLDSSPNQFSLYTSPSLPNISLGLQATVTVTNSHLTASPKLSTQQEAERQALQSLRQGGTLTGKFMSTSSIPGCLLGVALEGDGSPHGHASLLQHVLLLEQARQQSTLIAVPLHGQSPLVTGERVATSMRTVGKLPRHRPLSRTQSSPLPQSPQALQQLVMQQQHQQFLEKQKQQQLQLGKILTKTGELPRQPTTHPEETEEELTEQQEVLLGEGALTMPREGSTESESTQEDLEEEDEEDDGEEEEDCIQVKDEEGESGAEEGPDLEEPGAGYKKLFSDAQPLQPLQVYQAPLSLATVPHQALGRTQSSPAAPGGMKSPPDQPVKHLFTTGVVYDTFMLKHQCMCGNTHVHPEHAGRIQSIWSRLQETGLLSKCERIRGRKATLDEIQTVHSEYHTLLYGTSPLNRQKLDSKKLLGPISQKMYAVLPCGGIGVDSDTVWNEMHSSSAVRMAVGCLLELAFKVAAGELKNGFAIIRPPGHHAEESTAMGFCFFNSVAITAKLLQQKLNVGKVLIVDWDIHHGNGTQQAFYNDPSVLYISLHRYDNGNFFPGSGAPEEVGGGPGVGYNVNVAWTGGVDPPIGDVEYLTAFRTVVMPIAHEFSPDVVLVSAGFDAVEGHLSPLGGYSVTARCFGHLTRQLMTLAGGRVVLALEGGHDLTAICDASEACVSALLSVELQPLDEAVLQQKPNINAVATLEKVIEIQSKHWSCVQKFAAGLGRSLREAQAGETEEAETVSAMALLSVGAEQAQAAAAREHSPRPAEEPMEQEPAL
UniProt O15379: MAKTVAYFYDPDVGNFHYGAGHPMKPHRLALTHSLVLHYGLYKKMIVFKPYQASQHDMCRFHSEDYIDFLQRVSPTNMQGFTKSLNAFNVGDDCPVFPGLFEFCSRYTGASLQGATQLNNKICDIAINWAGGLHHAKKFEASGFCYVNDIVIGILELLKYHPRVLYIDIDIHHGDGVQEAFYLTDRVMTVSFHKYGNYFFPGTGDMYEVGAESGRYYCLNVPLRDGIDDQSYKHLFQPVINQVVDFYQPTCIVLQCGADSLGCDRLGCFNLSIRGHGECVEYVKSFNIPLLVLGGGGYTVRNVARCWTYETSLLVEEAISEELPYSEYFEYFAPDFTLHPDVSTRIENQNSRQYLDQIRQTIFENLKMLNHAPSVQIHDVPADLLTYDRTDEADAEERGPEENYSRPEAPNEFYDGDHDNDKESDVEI

One assay addresses GST-TLX(1-385) (UniProt Q9Y466). Description: pull-down; GST-fusion protein bound to glutathione-sepharose beads incubated with lysates of TLX-transduced LNCaP cells overnight at 4 °C; washed with TIF buffer (150 mM NaCl, 20 mM Tris, 1 mM MgCl2, 0.1% NP40, 10% glycerol, pH 8.0); immunoblot; only the target purified. (In general: In western blotting, separated proteins are transferred to a membrane and probed.)

In the next assay the target is FLAG-TLX (UniProt Q9Y466). Description: co-IP; lysates of FLAG-TLX-infected LNCaP cells immunoprecipitated with a FLAG antibody (IgG as control); immunoblot with HDACs and LSD1 antibodies.

These are yes or no findings as the source states them, for the method shown. Binding seen in cells or lysates may run through a third protein. Some binding calls cover weakened binding; strength is not graded here.

Consider “histone deacetylase 1 (HDAC1) (from UniProt Q13547 1-482) (enzyme)”, for which the binding entry in the assay with GST-TLX(1-385) and with FLAG-TLX was “binds” in each case. On to “histone deacetylase 5 (HDAC5) (from UniProt Q9UQL6 1-1122) (enzyme)”, for which the binding entry in the assay with FLAG-TLX is “no binding”. Consider “histone deacetylase 3 (HDAC3) (from UniProt O15379 1-428) (enzyme)”, for which the binding result with GST-TLX(1-385) and in the assay with FLAG-TLX was “binds” throughout.
